No constants are given. Whether binding was seen depends on the method and setting. In cells and extracts the contact can be indirect. Binding can be weak; no strength is given. Tags and fused reporters may be left off the sequences shown.

Drawing on paper doi:10.64898/2025.12.16.694471, this text covers binding for one substance.

In the experiment the target is T1, FLAG-Piwi (Drosophila melanogaster) (UniProt Q9VKM1).
T1 sequence: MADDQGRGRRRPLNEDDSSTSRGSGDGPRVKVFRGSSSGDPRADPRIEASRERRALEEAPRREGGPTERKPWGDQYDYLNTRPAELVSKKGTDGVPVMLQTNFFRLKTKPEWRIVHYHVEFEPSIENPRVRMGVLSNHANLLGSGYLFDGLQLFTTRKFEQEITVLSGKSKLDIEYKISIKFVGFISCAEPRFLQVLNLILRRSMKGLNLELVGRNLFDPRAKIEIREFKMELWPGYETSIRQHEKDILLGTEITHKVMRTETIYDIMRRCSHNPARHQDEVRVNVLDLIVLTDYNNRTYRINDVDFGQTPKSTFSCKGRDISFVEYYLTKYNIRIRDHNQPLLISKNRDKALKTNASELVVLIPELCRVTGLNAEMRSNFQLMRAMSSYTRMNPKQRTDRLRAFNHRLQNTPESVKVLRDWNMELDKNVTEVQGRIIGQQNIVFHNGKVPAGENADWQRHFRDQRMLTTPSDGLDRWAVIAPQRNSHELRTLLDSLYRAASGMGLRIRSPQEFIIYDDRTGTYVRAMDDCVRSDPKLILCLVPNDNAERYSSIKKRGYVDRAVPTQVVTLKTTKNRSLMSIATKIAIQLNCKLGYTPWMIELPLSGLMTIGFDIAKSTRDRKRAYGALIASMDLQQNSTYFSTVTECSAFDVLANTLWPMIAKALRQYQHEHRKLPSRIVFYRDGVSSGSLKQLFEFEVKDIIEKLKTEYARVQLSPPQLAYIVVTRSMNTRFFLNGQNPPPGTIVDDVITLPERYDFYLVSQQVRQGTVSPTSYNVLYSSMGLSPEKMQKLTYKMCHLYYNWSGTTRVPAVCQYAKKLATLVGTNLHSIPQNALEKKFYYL
In words: co-IP.

“TEs are up-1 (TEsup-1; CG31510) (from UniProt Q9VBX4)”: the binding result was “binds”.
